Reference: article doi:10.1101/2021.08.16.456582
No constants are given. Whether binding was seen depends on the method and setting. Binding seen in cells or lysates may run through a third protein. Some results given as binding are weak or reduced against the parent protein; the word gives no strength. Blank lines part the entries; values can stand above or below the molecule they belong to.

Columns and labels:
[1] = biological target: T1, 3xHA-RILPL (RILP-like, the fly RILP) (Drosophila) (UniProt O76878); test: co-IP
T1 sequence: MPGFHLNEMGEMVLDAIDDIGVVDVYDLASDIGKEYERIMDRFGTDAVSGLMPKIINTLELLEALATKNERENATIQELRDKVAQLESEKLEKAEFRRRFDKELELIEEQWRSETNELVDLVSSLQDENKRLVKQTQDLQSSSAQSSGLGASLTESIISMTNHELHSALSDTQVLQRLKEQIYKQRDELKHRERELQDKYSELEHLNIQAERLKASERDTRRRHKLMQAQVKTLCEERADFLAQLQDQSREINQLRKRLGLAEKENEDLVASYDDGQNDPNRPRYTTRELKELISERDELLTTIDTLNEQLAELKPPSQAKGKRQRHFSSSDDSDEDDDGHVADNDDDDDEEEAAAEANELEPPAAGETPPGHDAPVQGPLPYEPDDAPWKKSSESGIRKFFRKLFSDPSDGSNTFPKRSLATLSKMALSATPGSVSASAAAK

[2] = biological target: T2, 3xHA-RILPL (RILP-like, the fly RILP) (Drosophila), O76878; test: co-IP; conditions: remark: other sources report otherwise
T2 chain: T1 sequence

binding [1]: binds
Molecule: 3xFlag-Rab7^Q67L (from UniProt O76742 1-207)

binding [2]: binds
B1: Rab7 (endogenous, adult fly brain), O76742 1-207 (protein)
chain: MSGRKKSLLKVIILGDSSVGKTSLMNQYVNKRFSNQYKATIGADFCTKEVVVNDRVVTMQIWDTAGQERFQSLGVAFYRGADCCVLVYDVTAPNSFKNLDSWRDEFLIQASPRDPDHFPFVVLGNKVDLDNRQVSTRRAQQWCQSKNDIPYYETSAKEGINVEMAFQVIAKNALELEAEAEVINDFPDQITLGSQNNRPGNPDNCQC
